# Measurements reported in patent US9353092B2, “Synthesis and use of croconaine compounds” (University of Notre Dame du Lac, priority 2013, dated 2016).
# Assay: Singlet oxygen trapping experiment with DPBF
# Format: physicochemical
# Details: 5.0 μM dye, DPBF 100 μM, 99:1 MeOH/CHCl3, Xenon lamp >620 nm, 0-3 minutes
# Protocol: Shown in FIGS. 16 and 17 are singlet oxygen trapping experiments that use the chemical trap DPBF to react with any singlet oxygen that is produced. Thus, the presence of singlet oxygen is detected by a decrease in the DPBF absorbance band at 400 nm. Experiments monitored the change in the absorption spectra of a solution of croconaine 1 (5.0 μM) and DPBF (100 μM) in 99:1 MeOH/CHCl3 with Xenon lamp irradiation (>620 nm) after 0, 1, 2 and 3 minutes.
smiles,measurement,value
C#CCOCCN(CC)c1ccc(C2=C([O-])/C(=C3C=C/C(=[N+](/CC)CCOCC#C)S\3)C(=O)C2=O)s1 [Compound 1],Photogeneration of singlet oxygen (DPBF absorbance band at 400 nm),no singlet oxygen is produced
"CC1(C)C(/C=C/C=C/C=C/C=C2\N(CCCCS(=O)(=O)O)c3ccc4ccccc4c3C2(C)C)=[N+](CCCCS(=O)(=O)[O-])c2ccc3ccccc3c21 [ICG, indocyanine green]",Photogeneration of singlet oxygen (DPBF absorbance band at 400 nm),rapid loss of the DPBF absorbance band at 400 nm
